{"source": "the supplement of paper PMC6445147", "parents": {"B1": {"name": "human tRNA-Pro; a variant is named by its letters at N, in order (parent)", "chain": "GGCTCGTTGGTCTAGNGGTATGATTCTCGCTTAGGGTGCGAGAGGTCCCGGGTTCNNATCCCGGACGAGCCC"}}, "note": "Single values of this data set are uncertain.", "data": [{"variants_of": "B1", "test": "tRNA 5' processing efficiency (processed reads / all reads, maximum-likelihood estimate) (fraction); higher = more efficient 5' processing", "details": "HEK293T; construct: CMV Pol-II promoter ((+)CMV library, decapped)", "values": [{"variant": "GGCTCGTAGGTCTATGGGTATGATTCTCGCTTAGGGTGCGAGAGGTCCCGGGTGCCATTCCCGGACGAGCCC", "note": "[GCA T8A G15T T54G A58T]", "tRNA 5' processing efficiency": 0.17}, {"variant": "GGCTCGTTGGTCTAGGGGTATGATTCTCGCTTAGGGTGCGAGAGGTCCCGGGCTCCAATCCCGGACGAGCCC", "note": "[GCA T53C]", "tRNA 5' processing efficiency": 0.25}, {"variant": "GGCTCGTTGGTCTCGGGGTATGATTCTCGCTTAGGGTGCGAGAGGTCCCGGGATCGATGCCCGGACGAGCCC", "note": "[GGA A14C T53A A58T T59G]", "tRNA 5' processing efficiency": 0.2}, {"variant": "GGCTCGTTGGTCTTGGGTTATGATTCTCGCTTAGGGTGCGAGAGGTCCCGGGTGCGAATCCCGGACGAGCCC", "note": "[GGA A14T G18T T54G]", "tRNA 5' processing efficiency": 0.17}, {"variant": "GGCTCGTAGGTCTAGAGGTATGATTCTCACTTAGGGTGCGAGAGGTCCCGGGTTCGAATCCCGGACGAGCCC", "note": "[AGA T8A G29A]", "tRNA 5' processing efficiency": 0.4}, {"variant": "GGCTCGTTGGTCTATGGGTATGATTCTCGCTTAGGGTGCGAGAGGTCCCGGGTTTGAGTCCCGGACGAGCCC", "note": "[GGA G15T C55T A58G]", "tRNA 5' processing efficiency": 0.25}, {"variant": "GGCTCGTTGGTCTAGGAGTATGATTCTCGCTTAGGGTGCGAGAGGTCCCGGGTACGACTCCCGGACGAGCCC", "note": "[GGA G17A T54A A58C]", "tRNA 5' processing efficiency": 0.25}, {"variant": "GGCTCGTTGGTCTAAGGGTATGATTCTCGCTTAGGGTGCGAGAGGTCCCGGGTTCGAAGCCCGGACGAGCCC", "note": "[GGA G15A T59G]", "tRNA 5' processing efficiency": 0.4}, {"variant": "GGCTCGTTGGTCTAAGGGTATGATTCTCGCTTAGGGTGCGAGAGGTCCCGGGTTCGAACCCCGGACGAGCCC", "note": "[GGA G15A T59C]", "tRNA 5' processing efficiency": 0.25}, {"variant": "GGCTCGTTAGTCTGGAGGTATGATTCTCGCTTAGGGTGCGAGAGGTCCCGGGTGCGACGCCCGGACGAGCCC", "note": "[AGA G9A A14G T54G A58C T59G]", "tRNA 5' processing efficiency": 0.25}, {"variant": "GGCTCGTTGGTCTGGCGTTATGATTCTCGCTTAGGGTGCGAGAGGTCCCGGGTTTGAATCCCGGACGAGCCC", "note": "[CGA A14G G18T C55T]", "tRNA 5' processing efficiency": 0.33}, {"variant": "GGCTCGTTGGTCTGGAGGTATGATTCTCGCTTAGGGTGCGAGAGGTCCCGGGTTCGAATCCCGGACGAGCCC", "note": "[AGA A14G]", "tRNA 5' processing efficiency": 0.2}, {"variant": "GGCTCGTTAGTCTAGGGGTTTGATTCTCGCTTAGGGTGCGAGAGGTCCCGGGTTCGAATCCCGGACGAGCCC", "note": "[GGA G9A A20T]", "tRNA 5' processing efficiency": 0.25}, {"variant": "GGCTCGTTGGTCTAAGGGTCTGATTCTCGCTTAGGGTGCGAGAGGTCCCGGGTTCGAATCCCGGACGAGCCC", "note": "[GGA G15A A20C]", "tRNA 5' processing efficiency": 0.33}, {"variant": "GGCTCGTAGGTCTTGCGATATGATTCTCGCTTAGGGTGCGAGAGGTCCCGGGTCCCAGTCCCGGACGAGCCC", "note": "[CCA T8A A14T G18A T54C A58G]", "tRNA 5' processing efficiency": 0.33}, {"variant": "GGCTCGTTGGTCTGGTGAAATGATTCTCGCTTAGGGTGCGAGAGGTCCCGGGTTCGAATCCCGGACGAGCCC", "note": "[TGA A14G G18A T19A]", "tRNA 5' processing efficiency": 0.33}, {"variant": "GGCTCGTTGGTCTAGGTGTATGATTCTCGCTTAGGGTGCGAGAGGTCCCGGGTTTGAATCCCGGACGAGCCC", "note": "[GGA G17T C55T]", "tRNA 5' processing efficiency": 0.25}, {"variant": "GGCTCGTCGGTCTATGGGTATGATTCTCGCTTAGGGTGCGAGAGGTCCCGGGTTCGAATCCCGGACGAGCCC", "note": "[GGA T8C G15T]", "tRNA 5' processing efficiency": 0.4}, {"variant": "GGCTCGTTTGTCTCGGTGTATGATTCTCGCTTAGGGTGCGAGAGGTCCCGGGTTCGAACCCCGGACGAGCCC", "note": "[GGA G9T A14C G17T T59C]", "tRNA 5' processing efficiency": 0.33}, {"variant": "GGCTCGTTGGTCTCAGGGTATGATTCTCGCTTAGGGTGCGAGAGGTCCCGGGTACGAATCCCGGACGAGCCC", "note": "[GGA A14C G15A T54A]", "tRNA 5' processing efficiency": 0.11}, {"variant": "GGCTCGTTGGTCTAGGGGAATGATTCTCGCTTAGGGTGCGAGAGGTCCCGGGTTTGAATCCCGGACGAGCCC", "note": "[GGA T19A C55T]", "tRNA 5' processing efficiency": 0.17}, {"variant": "GGCTCGTGGGTCTAGGGTTGTGATTCTCGCTTAGGGTGCGAGAGGTCCCGGGTTCGAAGCCCGGACGAGCCC", "note": "[GGA T8G G18T A20G T59G]", "tRNA 5' processing efficiency": 0.17}, {"variant": "GGCTCGTTCGTCTAGGGGTATGATTCTCGCTTAGGGTGCGAGAGGTCCCGGGGTCGAATCCCGGACGAGCCC", "note": "[GGA G9C T53G]", "tRNA 5' processing efficiency": 0.5}, {"variant": "GGCTCGTGGGTCTAGGGGTATGATTCTCGCTTAGGGTGCGAGAGGTCCCGGGTTTCAATCCCGGACGAGCCC", "note": "[GCA T8G C55T]", "tRNA 5' processing efficiency": 0.25}, {"variant": "GGCTCGTTGGTCTAGGGGTATGATTCTCGCTTAGGGTGCGAGAGGTCCCGGGCTCGAATCCCGGACGAGCCC", "note": "[GGA T53C]", "tRNA 5' processing efficiency": 0.29}, {"variant": "GGCTCGTTAGTCTGCGGGTATGATTCTCGCTTAGGGTGCGAGAGGTCCCGGGTTAGAGTCCCGGACGAGCCC", "note": "[GGA G9A A14G G15C C55A A58G]", "tRNA 5' processing efficiency": 0.25}, {"variant": "GGCTCGTGGGTCTAGATGGATGATTCTCGCTTAGGGTGCGAGAGGTCCCGGGGTGGAATCCCGGACGAGCCC", "note": "[AGA T8G G17T T19G T53G C55G]", "tRNA 5' processing efficiency": 0.29}, {"variant": "GGCTCGTTGGTCTAGGTGTATGATTCTCGCTTAGGGTGCGAGAGGTCCCGGGGTTGAATCCCGGACGAGCCC", "note": "[GGA G17T T53G C55T]", "tRNA 5' processing efficiency": 0.2}, {"variant": "GGCTCGTTGGTCTGGTGGTATGATTCTCGCTTAGGGTGCGAGAGGTCCCGGGTTCGAAACCCGGACGAGCCC", "note": "[TGA A14G T59A]", "tRNA 5' processing efficiency": 0.33}, {"variant": "GGCTCGTGGGTCTAGGGTTATGATTCTCGCTTAGGGTGCGAGAGGTCCCGGGTTCGACTCCCGGACGAGCCC", "note": "[GGA T8G G18T A58C]", "tRNA 5' processing efficiency": 0.22}, {"variant": "GGCTCGTTGGTCTAGTGGTATGATTCTCGCTTAGGGTGCGAGAGGTCCCGGGTTTGAACCCCGGACGAGCCC", "note": "[TGA C55T T59C]", "tRNA 5' processing efficiency": 0.25}, {"variant": "GGCTCGTTGGTCTTGGGTTATGATTCTCGCTTAGGGTGCGAGAGGTCCCGGGCTCGAAACCCGGACGAGCCC", "note": "[GGA A14T G18T T53C T59A]", "tRNA 5' processing efficiency": 0.4}, {"variant": "GGCTCGTGGGTCTAGGCGTATGATTCTCGCTTAGGGTGCGAGAGGTCCCGGGTACGATTCCCGGACGAGCCC", "note": "[GGA T8G G17C T54A A58T]", "tRNA 5' processing efficiency": 0.33}, {"variant": "GGCTCGTTGGTCTATGCGTATGATTCTCGCTTAGGGTGCGAGAGGTCCCGGGAACGAATCCCGGACGAGCCC", "note": "[GGA G15T G17C T53A T54A]", "tRNA 5' processing efficiency": 0.2}, {"variant": "GGCTCGTTAGTCTAGGGGTATGATTCTCGCTTAGGGTGCGAGAGGTCCCGGGTGCGACTCCCGGACGAGCCC", "note": "[GGA G9A T54G A58C]", "tRNA 5' processing efficiency": 0.43}, {"variant": "GGCTCGTGGGTCTAGGGGTATGATTCTCGCTTAGGGTGCGAGAGGTCCCGGGTTAGAATCCCGGACGAGCCC", "note": "[GGA T8G C55A]", "tRNA 5' processing efficiency": 0.25}, {"variant": "GGCTCGTTGGTCTAGGGGGATGATTCTCGCTTAGGGTGCGAGAGGTCCCGGGTTCCCATCCCGGACGAGCCC", "note": "[GCC T19G]", "tRNA 5' processing efficiency": 0.33}, {"variant": "GGCTCGTTGGTCTCGGTGTATGATTCTCGCTTAGGGTGCGAGAGGTCCCGGGTTCGAATCCCGGACGAGCCC", "note": "[GGA A14C G17T]", "tRNA 5' processing efficiency": 0.57}]}]}
